The list shows a part of the results.
Assays:
Assay in all cases: glycan array binding signal (z-score within array); higher = stronger binding
Settings in all cases: glycan notation: IUPAC condensed, linker removed
Neu5Ac(a2-8)Neu5Ac = molecular target: Neu5Ac(a2-8)Neu5Ac
Procedure, shortened: (§1)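 Arrays were curated from the Consortium for Functional Glycomics database, 3228 in total, and kept only where the protein sequence was available. Binding is expressed as a within-array Z-score. This score was averaged across arrays of the same protein sequence at different concentrations or buffers and across linkers, and negative values can be read as non-binding.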

[1] = molecular target: Neu5Ac(a2-8)Neu5Ac(a2-3)Gal(b1-3)GalNAc(b1-4)[Neu5Ac(a2-3)]Gal(b1-4)Glc
Procedure, shortened: as §1

[2] = molecular target: Neu5Ac(a2-8)Neu5Ac(a2-3)Gal(b1-3)GalNAc(b1-4)[Neu5Ac(a2-8)Neu5Ac(a2-3)]Gal(b1-4)Glc
Procedure, shortened: as §1

[3] = molecular target: Neu5Ac(a2-8)Neu5Ac(a2-3)Gal(b1-4)Glc
Procedure, shortened: as §1

[4] = molecular target: Neu5Ac(a2-8)Neu5Ac(a2-3)Gal(b1-4)GlcNAc
Procedure, shortened: as §1

[5] = molecular target: Neu5Ac(a2-8)Neu5Ac(a2-3)[Gal(b1-3)GalNAc(b1-4)]Gal(b1-4)Glc
Procedure, shortened: as §1

[6] = molecular target: Neu5Ac(a2-8)Neu5Ac(a2-3)[GalNAc(b1-4)]Gal(b1-4)Glc
Procedure, shortened: as §1

[7] = molecular target: Neu5Ac(a2-8)Neu5Ac(a2-8)Neu5Ac
Procedure, shortened: as §1

[8] = molecular target: Neu5Ac(a2-8)Neu5Ac(a2-8)Neu5Ac(a2-3)Gal(b1-4)Glc
Procedure, shortened: as §1

[9] = molecular target: Neu5Ac(a2-8)Neu5Ac(a2-8)Neu5Ac(a2-3)[Gal(b1-3)GalNAc(b1-4)]Gal(b1-4)Glc
Procedure, shortened: as §1

[10] = molecular target: Neu5Ac(a2-8)Neu5Ac(a2-8)Neu5Ac(a2-3)[GalNAc(b1-4)]Gal(b1-4)Glc
Procedure, shortened: as §1

[11] = molecular target: Neu5Ac(a2-8)Neu5Ac(a2-8)Neu5Ac(a2-8)Neu5Ac(a2-3)[GalNAc(b1-4)]Gal(b1-4)Glc
Procedure, shortened: as §1

[12] = molecular target: Neu5Ac(a2-8)Neu5Gc(a2-3)Gal(b1-4)GlcNAc
Procedure, shortened: as §1

[13] = molecular target: Neu5Ac(b2-6)Gal(b1-4)GlcNAc
Procedure, shortened: as §1

Neu5Ac(b2-6)GalNAc = molecular target: Neu5Ac(b2-6)GalNAc
Procedure, shortened: as §1

[14] = molecular target: Neu5Ac9Ac(a2-3)Gal(b1-3)GlcNAc
Procedure, shortened: as §1

[15] = molecular target: Neu5Ac9Ac(a2-3)Gal(b1-4)GlcNAc
Procedure, shortened: as §1

[16] = molecular target: Neu5Ac9Ac(a2-6)Gal(b1-4)GlcNAc
Procedure, shortened: as §1

[17] = molecular target: Neu5Gc(a2-3)Gal(b1-3)GlcNAc
Procedure, shortened: as §1

[18] = molecular target: Neu5Gc(a2-3)Gal(b1-3)[Fuc(a1-4)]GlcNAc
Procedure, shortened: as §1

Neu5Gc(a2-3)Gal(b1-4)Glc = molecular target: Neu5Gc(a2-3)Gal(b1-4)Glc
Procedure, shortened: as §1

[19] = molecular target: Neu5Gc(a2-3)Gal(b1-4)GlcNAc
Procedure, shortened: as §1

[20] = molecular target: Neu5Gc(a2-3)Gal(b1-4)GlcNAc(b1-3)Gal(b1-4)GlcNAc(b1-2)Man(a1-3)[Neu5Gc(a2-3)Gal(b1-4)GlcNAc(b1-3)Gal(b1-4)GlcNAc(b1-2)Man(a1-6)]Man(b1-4)GlcNAc(b1-4)GlcNAc
Procedure, shortened: as §1

[21] = molecular target: Neu5Gc(a2-3)Gal(b1-4)[Fuc(a1-3)]GlcNAc
Procedure, shortened: as §1

[22] = molecular target: Neu5Gc(a2-6)Gal(b1-4)GlcNAc
Procedure, shortened: as §1

Neu5Gc(a2-6)GalNAc = molecular target: Neu5Gc(a2-6)GalNAc
Procedure, shortened: as §1

[23] = molecular target: Neu5Gc(a2-8)Neu5Ac(a2-3)Gal(b1-4)GlcNAc
Procedure, shortened: as §1

[24] = molecular target: Neu5Gc(a2-8)Neu5Gc(a2-3)Gal(b1-4)GlcNAc
Procedure, shortened: as §1

[25] = molecular target: Neu5Gc(a2-8)Neu5Gc(a2-3)Gal(b1-4)GlcNAc(b1-3)Gal(b1-4)GlcNAc
Procedure, shortened: as §1

[26] = molecular target: Neu5Gc(a2-8)Neu5Gc(a2-6)Gal(b1-4)GlcNAc
Procedure, shortened: as §1

[27] = molecular target: Neu5Gc(b2-6)Gal(b1-4)GlcNAc
Procedure, shortened: as §1

B1: SAOUHSC 02783 (Staphylococcus aureus), Q5HD69 (protein)
chain: MIHSKKLTLGICLVLLIILIVGYVIMTKTNGRNAQIKDTFNQTLKLYPTKNLDDFYDKEGFRDQEFKKGDKGTWIVNSEMVIEPKGKDMETRGMVLYINRNTRTTKGYYFISEMTDDSNGRPKDDEKRYPVKMEHNKIIPTKPLPNDKLKKEIENFKFFVQYGNFKDINDYKDGDISYNPNVPSYSAKYQLNNDDYNVQQLRKRYDIPTKQAPKLLLKGDGDLKGSSVGSRSLEFTFVENKEENIYFTDSVQYTPSEDTRYESN
B1 was tested, and the “glycan array binding signal (z-score)” value (Neu5Ac(a2-8)Neu5Ac) was -0.229, the “glycan array binding signal (z-score)” value [1] was -1.24 and the “glycan array binding signal (z-score)” value [2] was -0.625. The “glycan array binding signal (z-score)” value [3] was -0.728, the “glycan array binding signal (z-score)” value [4] was 0.416 and the “glycan array binding signal (z-score)” value [5] was 0.98. The “glycan array binding signal (z-score)” value [6] was -0.759, the “glycan array binding signal (z-score)” value [7] was 1.49 and the “glycan array binding signal (z-score)” value [8] was 0.363. The “glycan array binding signal (z-score)” value [9] was -1.75, the “glycan array binding signal (z-score)” value [10] was -0.985 and the “glycan array binding signal (z-score)” value [11] was -0.411. The “glycan array binding signal (z-score)” value [12] was -1.02, the “glycan array binding signal (z-score)” value [13] was -1.62 and the “glycan array binding signal (z-score)” value (Neu5Ac(b2-6)GalNAc) was 0.273. The “glycan array binding signal (z-score)” value [14] was 1.1, the “glycan array binding signal (z-score)” value [15] was -0.671 and the “glycan array binding signal (z-score)” value [16] was 1.65. For the same binder, the “glycan array binding signal (z-score)” value [17] was 1.47, the “glycan array binding signal (z-score)” value [18] was -0.236 and the “glycan array binding signal (z-score)” value (Neu5Gc(a2-3)Gal(b1-4)Glc) was -1.37. The “glycan array binding signal (z-score)” value [19] was 3.09, the “glycan array binding signal (z-score)” value [20] was 1.23 and the “glycan array binding signal (z-score)” value [21] was 0.846. The “glycan array binding signal (z-score)” value [22] was -1.49, the “glycan array binding signal (z-score)” value (Neu5Gc(a2-6)GalNAc) was -0.388 and the “glycan array binding signal (z-score)” value [23] was -0.724. The “glycan array binding signal (z-score)” value [24] was -1.18, the “glycan array binding signal (z-score)” value [25] was 0.421 and the “glycan array binding signal (z-score)” value [26] was -0.44. The “glycan array binding signal (z-score)” value [27] was -0.76.

From the supplement of paper PMC8728848
